Measured values taken from the supplement of paper PMC11150407.
The campaign covered roughly 3,000 compounds. About 45 (2%) showed an effect of 50% or more. This is one part of the list.

System: MOLM1 and UCSD/AML1 (averaged)
Assay: cell viability relative to DMSO control (POC); higher = less growth inhibition
Details: 1 µM; 72 h
Protocol: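 Primary viability screen in the 3q26 EVI1-high AML cell lines MOLM1 and UCSD/AML1, compounds at 1 uM for 72 h. ATP CellTiter-Glo read-out given as percent viable over DMSO control (POC), averaged over duplicates. This mapping covers the TimTec NDL-3000 natural derivative library, whose compounds are identified by TimTec catalogue codes (ST...).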

| Compound | cell viability [%] |
| --- | --- |
| Cc1ccc(NC(=O)CN2C(=O)S/C(=C/c3cc4c(cc3Cl)OCO4)C2=O)cc1C | 93.4 |
| CC1(C)CCC23CCC4(C)C(CCC5C6(C)CCC(O)C(C)(C)C6CCC54C)C2C1OC3 (stereo not given) | 87.5 |
| COc1ccc(/C=C/C=C/C(=O)O)cc1OC | 97.4 |
| Cc1[nH]c2ccc(OC(F)(F)F)cc2c1CCNC(=O)c1cccc([N+](=O)[O-])c1 | 84.3 |
| O=C(CCNc1cccc(F)c1)c1ccc2c(c1)OCO2 | 105 |
| CCCCCOC(=O)C1=C(C)NC2=C(C(=O)CC(C)(C)C2)C1c1cc(Cl)c(O)c(OC)c1 (stereo not given) | 101 |
| Cc1ccc2c(CN3CCN(Cc4cccc(F)c4)CC3)cc(=O)oc2c1 | 102 |
| COc1ccc(C(=O)N2CCN(c3cccc(Cl)c3)CC2)cc1OC | 99 |
| O=C1ON=C(c2cccc([N+](=O)[O-])c2)/C1=C/c1ccc2c(c1)OCO2 | 102 |
| COc1ccc(C(=O)Nc2ccccc2C(=O)OCC(=O)c2ccc(Cl)cc2)cc1OC | 93.1 |
| CCOC(=O)C(=O)Nc1ccccc1 | 92.2 |
| O=C(CNC(=O)OCc1ccccc1)NC(Cc1ccc(O)cc1)C(=O)O (stereo not given) | 100 |
| N#CC1=C(N)Oc2c(c(=O)oc3ccccc23)C12C(=O)N(Cc1ccc(Cl)cc1)c1ccccc12 (stereo not given) | 98.4 |
| Cc1ccc(C2=NOC(=O)/C2=C\c2ccc3c(c2)OCO3)cc1C | 100 |
| O=C(Cn1c(=O)cc(C(=O)N2CCCC2)c2ccccc21)Nc1ccccc1F | 97.3 |
| COc1ccc(-c2nc(CSc3nc4c(=O)[nH]cnc4n3-c3ccc(C)cc3)c(C)o2)cc1 | 101 |
| Cc1nc2ccccc2c(C(=O)O)c1O | 106 |
| O=C(Cn1c(=O)cc(C(=O)N2CCCCC2)c2ccccc21)Nc1ccccc1F | 93 |
| COc1ccc(/C=C2/c3cc(C)ccc3-c3ncccc32)cc1 | 95.8 |
| COCCOC(=O)c1c(C)n(CCOc2ccccc2Cl)c2c1cc(O)c1ccccc12 | 97.1 |
| CCN(CC)C(=O)c1cc(=O)n(CC(=O)Nc2ccccc2F)c2ccccc12 | 91 |
| O=C(/C=C/c1ccc([N+](=O)[O-])cc1)c1cccc2ccccc12 | 32.8 |

Copied from the listing (two entries):

| Compound | cell viability [%] |
| --- | --- |
| COc1ccc(/C=C/C=C/C(=O)O)cc1OC | 97.4 |
| Cc1[nH]c2ccc(OC(F)(F)F)cc2c1CCNC(=O)c1cccc([N+](=O)[O-])c1 | 84.3 |

Remaining list, next part.

| Compound | cell viability [%] |
| --- | --- |
| O=C(O)C1Nc2c(O)cc(Cl)c([N+](=O)[O-])c2C2C=CCC12 (stereo not given) | 99.4 |
| CC(C)(C)OC(=O)N[C@@H](Cc1cn(-c2ccc([N+](=O)[O-])cc2[N+](=O)[O-])cn1)C(=O)O | 108 |
| CCCCCCC(O)C(N)C(=O)O (stereo not given) | 107 |
| COCCOC(=O)C1=C(C)NC2=C(C(=O)CCC2)C1c1cc(Br)c(O)c(OC)c1 (stereo not given) | 109 |
| COc1ccc(C(=O)NCCc2c(C)[nH]c3ccc(F)cc23)cc1OC | 103 |
| COc1cc(C=O)cc(O)c1OC | 104 |
| COc1cc(C2Nc3ccccc3C(=O)N2c2ccc(C)cc2)cc(OC)c1OC (stereo not given) | 106 |
| CC1(C)C2CCC1(CS(=O)(=O)Nc1ccncc1)C(=O)C2 (stereo not given) | 106 |
| Cn1c(SCC(=O)Nc2ccccc2Cl)nc2c(=O)[nH]cnc21 | 107 |
| C=C(C)C1CCC2(C(=O)OC)CCC3(C)C(CCC4C5(C)C/C(=C\c6ccc(OCC)cc6)C(=O)C(C)(C)C5CCC43C)C12 (stereo not given) | 98.5 |
| COc1cc2c(cc1OC)C(c1cc(OC)c(O)c(OC)c1)CC(=O)N2 (stereo not given) | 99.5 |
| COc1ccc(C2CC(=O)C3=C(C2)Nc2ccccc2NC3c2cc(Br)c(O)c(OC)c2)cc1OC (stereo not given) | 105 |
| CC(C)COc1ccc2[nH]c3c(c2c1)CCCC3=O | 90.6 |
| COc1cc(C(=O)NCCc2c(C)[nH]c3ccccc23)cc(OC)c1OC | 81.5 |
| C#CC(C)(CC)NC(=O)c1ccc(OC)c(OC)c1 (stereo not given) | 104 |
| N[C@@H](C(=O)O)[C@@H](O)[C@H](O)[C@H](O)CO | 87.1 |
| O=C(NC(Cc1c[nH]c2ccccc12)C(=O)O)c1ccco1 (stereo not given) | 91.7 |
| CCOC(=O)C1=C(C)NC(=O)NC1c1ccc(O)cc1 (stereo not given) | 102 |
| N#C/C(=C\c1ccc(N2CCOCC2)o1)C(=O)NCCc1c[nH]c2ccccc12 | 127 |
| CC(=O)c1nc2ccccc2n1CC(=O)NCCOc1ccccc1 | 98.2 |
| Cc1ccc2[nH]c(C)c(CCNC(=O)c3cc4cc(Br)ccc4oc3=O)c2c1 | 102 |
| CCc1c(C)sc(NC(=O)c2ccc(OC)c(OC)c2)c1C(N)=O | 87.1 |

Of the compounds above, these have a Cl atom:

| Compound | cell viability [%] |
| --- | --- |
| Cc1ccc(NC(=O)CN2C(=O)S/C(=C/c3cc4c(cc3Cl)OCO4)C2=O)cc1C | 93.4 |
| CCCCCOC(=O)C1=C(C)NC2=C(C(=O)CC(C)(C)C2)C1c1cc(Cl)c(O)c(OC)c1 (stereo not given) | 101 |
| COc1ccc(C(=O)N2CCN(c3cccc(Cl)c3)CC2)cc1OC | 99 |
| COc1ccc(C(=O)Nc2ccccc2C(=O)OCC(=O)c2ccc(Cl)cc2)cc1OC | 93.1 |
| N#CC1=C(N)Oc2c(c(=O)oc3ccccc23)C12C(=O)N(Cc1ccc(Cl)cc1)c1ccccc12 (stereo not given) | 98.4 |
| COCCOC(=O)c1c(C)n(CCOc2ccccc2Cl)c2c1cc(O)c1ccccc12 | 97.1 |
| O=C(O)C1Nc2c(O)cc(Cl)c([N+](=O)[O-])c2C2C=CCC12 (stereo not given) | 99.4 |
| Cn1c(SCC(=O)Nc2ccccc2Cl)nc2c(=O)[nH]cnc21 | 107 |

Later entries.

| Compound | cell viability [%] |
| --- | --- |
| CC(=O)OC1CCC2(C)C3CCC4(C)C(/C(C)=N\O)=CCC4C3CC[C@H]2C1 (stereo not given in full) | 92.9 |
| CCn1ncc(C(=O)NC2C(=O)N3C(C(=O)O)=C(C)CSC23)c1C (stereo not given) | 101 |
| COc1ccc(S(=O)(=O)N2Cc3ccccc3CC2C(=O)Nc2ccc(C(C)=O)cc2)cc1OC (stereo not given) | 108 |
| O=C(O)CCC(=O)NC(Cc1c[nH]c2ccccc12)C(=O)O (stereo not given) | 97.4 |
| CCOc1ccc(C(=O)Nc2ccc(Br)cc2)cc1OCC | 86.9 |
| CCOC(=O)CNC(=O)c1cccc(Cl)c1 | 109 |
| Cc1cc2c(c(O)c1-c1c(C)cc3c(c1O)/C(=C/Nc1c(O)cc(S(=O)(=O)O)c4ccccc14)C(=O)C(O)=C3C(C)C)/C(=C/Nc1c(O)cc(S(=O)(=O)O)c3ccccc13)C(=O)C(O)=C2C(C)C | 90.5 |
| CSc1nc(N)nc2nc[nH]c12 | 98.9 |
| COc1cc(C2NC(=O)NC(C)=C2C(=O)OCCOC(C)C)cc(Br)c1O (stereo not given) | 99.6 |
| CCOc1cc(C2NC(=O)NC(C)=C2C(=O)NCc2ccccc2)ccc1O (stereo not given) | 104 |
| COc1cc(C(C)=O)ccc1OCc1ccccc1F | 96.8 |
| Cc1ccc(NC(=O)CN2C(=O)S/C(=C/c3cc4c(cc3Cl)OCO4)C2=O)cc1 | 92 |
| CCOC1OC2C(CO)OC(n3cnc4c(N)ncnc43)C2O1 (stereo not given) | 101 |
| CC/C(O)=C1\C(=O)CC(c2ccccc2)CC1=NCCc1c(C)[nH]c2ccc(OCc3ccccc3)cc12 (stereo not given) | 94.7 |
| CCCCCCCC(CCCC(=O)O)C(=O)O (stereo not given) | 101 |
| COc1cc(OC)cc(C(=O)Nc2ccccc2C(=O)Nc2ccccc2Cl)c1 | 95.1 |
| CCOc1cc(/C=C/C(=O)O)cc(OCC)c1OCC | 101 |
| CC(=O)N/C(=C/c1ccc2c(c1)OCO2)C(=O)NCc1ccccc1 | 105 |
| COc1ccc(C(=O)c2nccc3cc(OC)c(OC)cc23)cc1OC | 101 |
| CCOC(=O)C(Cc1c[nH]c2ccccc12)NS(=O)(=O)c1ccc2c(c1)OCCO2 (stereo not given) | 103 |
| CCC(O)/N=C/c1c(O)c(O)c(C(C)C)c2cc(C)c(-c3c(C)cc4c(C(C)C)c(O)c(O)c(/C=N/C(O)CC)c4c3O)c(O)c12 (stereo not given) | 88.9 |
